Laboratory results from PMC2745413.
Results are given in words; binding and its absence hold for the method and conditions named. Binding seen in cells or lysates may run through a third protein. Some entries that bind do so weakly or less than the wild type.

Amino acid sequences for entries named in this document (tags omitted).
UniProt P35222: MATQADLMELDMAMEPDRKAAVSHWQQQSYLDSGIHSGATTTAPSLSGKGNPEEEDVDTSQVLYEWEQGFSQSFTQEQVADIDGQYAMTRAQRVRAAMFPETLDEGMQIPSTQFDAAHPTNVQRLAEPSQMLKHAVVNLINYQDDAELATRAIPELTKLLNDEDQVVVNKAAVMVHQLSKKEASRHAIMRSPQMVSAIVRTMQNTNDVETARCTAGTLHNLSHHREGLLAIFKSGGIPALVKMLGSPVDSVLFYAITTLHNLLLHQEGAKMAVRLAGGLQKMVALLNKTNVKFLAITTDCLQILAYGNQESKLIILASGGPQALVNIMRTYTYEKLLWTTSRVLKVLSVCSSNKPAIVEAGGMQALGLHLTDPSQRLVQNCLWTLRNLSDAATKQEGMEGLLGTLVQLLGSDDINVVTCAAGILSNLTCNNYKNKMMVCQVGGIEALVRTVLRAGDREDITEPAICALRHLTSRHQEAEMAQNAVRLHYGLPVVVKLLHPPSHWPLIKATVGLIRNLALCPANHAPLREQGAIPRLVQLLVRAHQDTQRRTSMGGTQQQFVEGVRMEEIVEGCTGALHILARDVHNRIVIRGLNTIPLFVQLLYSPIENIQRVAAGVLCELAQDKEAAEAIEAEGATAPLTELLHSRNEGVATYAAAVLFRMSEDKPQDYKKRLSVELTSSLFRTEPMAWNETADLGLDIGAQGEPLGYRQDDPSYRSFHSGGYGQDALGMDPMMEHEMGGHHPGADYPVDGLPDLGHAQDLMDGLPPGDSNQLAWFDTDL
UniProt P46940: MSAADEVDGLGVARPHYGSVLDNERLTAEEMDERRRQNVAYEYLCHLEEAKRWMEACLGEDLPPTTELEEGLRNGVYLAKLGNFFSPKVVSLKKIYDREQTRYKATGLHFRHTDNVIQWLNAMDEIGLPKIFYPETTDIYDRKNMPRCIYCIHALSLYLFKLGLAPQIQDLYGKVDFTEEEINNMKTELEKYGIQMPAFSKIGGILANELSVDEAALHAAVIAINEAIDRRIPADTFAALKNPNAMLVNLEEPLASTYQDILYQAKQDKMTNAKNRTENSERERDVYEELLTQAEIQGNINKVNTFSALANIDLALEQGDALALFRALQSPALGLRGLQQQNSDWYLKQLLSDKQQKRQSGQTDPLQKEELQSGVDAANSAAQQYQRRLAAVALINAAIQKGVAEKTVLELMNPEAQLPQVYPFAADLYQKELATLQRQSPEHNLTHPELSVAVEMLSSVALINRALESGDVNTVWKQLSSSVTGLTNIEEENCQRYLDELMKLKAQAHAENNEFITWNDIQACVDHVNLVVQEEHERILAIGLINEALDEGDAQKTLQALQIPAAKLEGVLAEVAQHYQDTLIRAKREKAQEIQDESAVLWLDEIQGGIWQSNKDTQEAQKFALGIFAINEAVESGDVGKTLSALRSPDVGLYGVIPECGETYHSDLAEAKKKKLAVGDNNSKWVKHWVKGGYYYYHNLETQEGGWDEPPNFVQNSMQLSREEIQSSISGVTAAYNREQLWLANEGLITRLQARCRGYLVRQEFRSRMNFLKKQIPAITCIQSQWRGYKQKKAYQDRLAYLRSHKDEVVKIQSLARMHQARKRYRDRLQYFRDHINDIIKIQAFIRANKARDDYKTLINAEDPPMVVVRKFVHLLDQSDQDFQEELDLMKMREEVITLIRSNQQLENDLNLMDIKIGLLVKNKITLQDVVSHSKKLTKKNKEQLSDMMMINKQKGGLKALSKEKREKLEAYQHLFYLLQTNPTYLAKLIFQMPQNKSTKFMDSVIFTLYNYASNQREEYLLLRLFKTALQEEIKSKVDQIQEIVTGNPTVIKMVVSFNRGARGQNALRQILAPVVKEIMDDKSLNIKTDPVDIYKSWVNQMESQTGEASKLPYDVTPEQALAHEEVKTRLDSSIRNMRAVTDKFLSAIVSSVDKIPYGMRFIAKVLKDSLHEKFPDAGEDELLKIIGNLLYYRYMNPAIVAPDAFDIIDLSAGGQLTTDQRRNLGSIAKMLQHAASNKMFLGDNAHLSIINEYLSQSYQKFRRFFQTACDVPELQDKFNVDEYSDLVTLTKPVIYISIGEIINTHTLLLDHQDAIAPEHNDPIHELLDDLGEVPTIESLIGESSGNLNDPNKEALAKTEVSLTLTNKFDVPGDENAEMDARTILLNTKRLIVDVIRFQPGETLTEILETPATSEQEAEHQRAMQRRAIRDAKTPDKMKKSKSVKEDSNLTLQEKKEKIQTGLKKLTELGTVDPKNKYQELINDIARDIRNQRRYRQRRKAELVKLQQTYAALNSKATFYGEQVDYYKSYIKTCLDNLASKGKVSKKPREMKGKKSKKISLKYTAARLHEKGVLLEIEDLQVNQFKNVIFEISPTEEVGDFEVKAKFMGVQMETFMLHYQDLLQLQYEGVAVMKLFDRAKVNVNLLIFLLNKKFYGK

Columns and labels:
[1] = target: β-catenin (endogenous) (human (endogenous in PANC-1)) (UniProt P35222); assay: condition: only particulate fraction of EGFP-Rac1(V12)-expressing cells; co-IP; 300 μg of the particulate (P100) fraction of EGFP-Rac1(V12)-expressing PANC-1 cells, for the pair IQGAP1 and β-catenin; IQGAP1 or β-catenin precipitated; Western blot
GST-β-catenin [2] = target: GST-β-catenin (UniProt P35222); assay: pull-down; 20-40 μg GST-β-catenin immobilised to glutathione sepharose, 500 μg RIPA lysate of EGFP-Rac1(N17)-expressing PANC-1 cells, 60 min at 4°C; Western blot for IQGAP1; only the target purified
GST-β-catenin [3] = target: GST-β-catenin (UniProt P35222); assay: condition: only lysate of EGFP-Rac1(V12)-expressing cells; pull-down; 20-40 μg GST-β-catenin immobilised to glutathione sepharose, 500 μg RIPA lysate of EGFP-Rac1(V12)-expressing PANC-1 cells, 60 min at 4°C; Western blot for IQGAP1; only the target purified
[4] = target: β-catenin (endogenous) (human (endogenous in PANC-1)) (UniProt P35222); assay: co-IP; 300 μg of the particulate, membrane-containing (P100) fraction of PANC-1 clones expressing EGFP, EGFP-Rac1(V12) or EGFP-Rac1(N17); IQGAP1 or β-catenin precipitated; Western blot
[5] = target: IQGAP1 (human (endogenous in PANC-1)) (UniProt P46940); assay: co-IP; 300 μg of the particulate (P100) fraction of EGFP-Rac1(V12)-expressing PANC-1 cells, for the pair IQGAP1 and β-catenin; IQGAP1 or β-catenin precipitated; Western blot
[6] = target: IQGAP1 (human (endogenous in PANC-1)) (UniProt P46940); assay: co-IP; as a2, total lysate of EGFP-Rac1(V12)-expressing PANC-1 cells; IQGAP1 precipitated, β-catenin blotted
[7] = target: IQGAP1 (human (endogenous in PANC-1)) (UniProt P46940); assay: co-IP; μMACS protein isolation system, NOP lysate (50 mM Tris/HCl pH 7.2, 1% Triton X-100, 1% NP-40, 150 mM NaCl) of PANC-1 clones stably expressing EGFP, EGFP-Rac1(V12) or EGFP-Rac1(N17); also PANC-1 cells treated with PDGF AB or NSC23766; Western blot
[8] = target: IQGAP1 (human (endogenous in PANC-1)) (UniProt P46940); assay: co-IP; 300 μg of the soluble (S100) fraction of PANC-1 clones expressing EGFP, EGFP-Rac1(V12) or EGFP-Rac1(N17); IQGAP1 or β-catenin precipitated; Western blot
[9] = target: IQGAP1 (human (endogenous in PANC-1)) (UniProt P46940); assay: co-IP; 300 μg of the particulate, membrane-containing (P100) fraction of PANC-1 clones expressing EGFP, EGFP-Rac1(V12) or EGFP-Rac1(N17); IQGAP1 or β-catenin precipitated; Western blot

binding [1] | binding (GST-β-catenin [2]) | binding (GST-β-catenin [3]) | binding [4] | binding [5] | binding [6] | binding [7] | binding [9] | Substance | binding [8]
no binding | binds | no binding | binds |  |  |  |  | IQGAP1 (from UniProt P46940 1-1657) | 
 |  |  |  | binds weakly | binds weakly | binds | binds | β-catenin (endogenous) (from UniProt P35222 1-781) | no binding (condition: in the soluble (S100) fraction)
